This note sets out measurements from patent publication US20060234242.

By UniProt entry, the sequences of proteins in these tests, tags left out. Where a name states a change or a piece, a line headed by the entry shows the natural chain unless it says otherwise.
UniProt Q00438: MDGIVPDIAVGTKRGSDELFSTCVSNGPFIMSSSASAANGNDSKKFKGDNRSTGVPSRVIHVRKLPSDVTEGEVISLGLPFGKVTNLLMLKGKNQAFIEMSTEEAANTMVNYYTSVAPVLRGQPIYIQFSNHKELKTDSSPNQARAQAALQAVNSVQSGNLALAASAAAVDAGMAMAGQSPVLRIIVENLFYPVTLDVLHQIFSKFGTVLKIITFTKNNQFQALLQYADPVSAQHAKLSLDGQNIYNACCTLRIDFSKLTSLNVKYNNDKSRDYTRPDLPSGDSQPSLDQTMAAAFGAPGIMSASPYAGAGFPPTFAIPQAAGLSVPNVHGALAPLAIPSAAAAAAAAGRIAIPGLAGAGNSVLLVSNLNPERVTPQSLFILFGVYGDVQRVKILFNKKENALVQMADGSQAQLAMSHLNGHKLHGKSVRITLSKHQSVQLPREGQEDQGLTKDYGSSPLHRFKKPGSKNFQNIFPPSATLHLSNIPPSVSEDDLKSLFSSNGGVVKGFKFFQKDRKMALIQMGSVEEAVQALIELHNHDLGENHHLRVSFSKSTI
UniProt P26599: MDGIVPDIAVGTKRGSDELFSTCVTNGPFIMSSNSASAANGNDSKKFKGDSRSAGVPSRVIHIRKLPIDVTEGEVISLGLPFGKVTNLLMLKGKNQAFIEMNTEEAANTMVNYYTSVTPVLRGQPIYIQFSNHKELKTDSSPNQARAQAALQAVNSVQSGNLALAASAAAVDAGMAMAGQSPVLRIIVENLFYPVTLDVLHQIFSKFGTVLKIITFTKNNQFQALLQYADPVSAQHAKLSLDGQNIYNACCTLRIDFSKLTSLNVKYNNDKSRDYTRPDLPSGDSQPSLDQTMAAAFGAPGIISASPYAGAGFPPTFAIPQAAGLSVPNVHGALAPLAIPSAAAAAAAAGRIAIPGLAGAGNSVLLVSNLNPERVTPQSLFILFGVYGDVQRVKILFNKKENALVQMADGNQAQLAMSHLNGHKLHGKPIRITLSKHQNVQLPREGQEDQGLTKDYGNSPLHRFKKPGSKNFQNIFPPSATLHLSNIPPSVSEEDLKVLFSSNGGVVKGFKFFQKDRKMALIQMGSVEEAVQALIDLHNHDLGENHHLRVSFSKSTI

The exact form of at least one protein or probe is not confirmed. Negatives hold for the conditions tested. For some of these results: At least one result comes from cells or an extract, where the contact may be indirect.

Series [1] deals with PTB (polypyrimidine tract binding protein, native from INS-1 cell lysate) (UniProt Q00438). The series is described as follows: pull-down. To be noted: protein in an extract, label: biotin.
Series [2] deals with PTB (recombinant, GST-PTB) (Homo sapiens) (UniProt P26599). The series is described as follows: pull-down. To be noted: recombinant PTB also evaluated (tag not stated in this paragraph); purified recombinant protein; protein details: GST (pGEX4T); label: biotin.

Regarding “AGCCCTAAGTGACCAGCTACAGTCGGAAACCATCAGCAAGCAGGTCATTGTTCCAAC [preproinsulin 5'-UTR element]”, the binding result in series [1] (150 mM NaCl, 4 C, PTB does not bind 5'-UTR) is recorded as “no binding”; in series [2], “no binding”. On to “GCCCACCACUACCCUGACCACCCCUCUGCAAUGAAUAAAACCUUUGAAAGAGC [preproinsulin 3'-UTR probe (Example 8)]”, for which the binding result in series [1] (300 mM NaCl, RLB buffer, glucose (15 mM) gives acute transient increase in binding) is listed as “binds”. On to “UGAAUACAAGCUCACGACCCACUACACAAGCUACCAGAUACAACAACAAGCAUCCACC [control RNA oligonucleotide (Example 8)]”, for which the binding result in series [1] (300 mM NaCl, RLB buffer, no binding detected) is “no binding”.
